{"source": "patent CN113480646A", "molecular_target": "内源过表达的H1.4移码突变蛋白(H1.4 K157E fs*), Flag fusion expressed from pFLAG-CMV-H1.4 K157E fs* in NIH 3T3 cells", "test": "Western blot, 50 ug lysate of transfected NIH 3T3 cells", "note": "Results are given in words; binding and its absence hold for the method and conditions named. Some entries that bind do so weakly or less than the wild type.", "data": [{"binder": "特异性结合H1.4移码突变蛋白的单克隆抗体 (hybridoma cell line A1) (antibody, mouse IgG1, kappa, V domains shown) VH: QIQLVQSGPELKKPGETVKISCKASGYTFTDYSMQWMKQAPGKGLKWMGWIDTGTGEPSYADDFKGRFAFSLETSASTAYLQINNLKNEDTATYFCARRSYGYFAFWGQGTLVAVSA VL: DVVMTQTPLSLPVSLGDQASISCRSSQNIVHVNGNTYLEWYLQKPGQSPKLLIYKVSNRFSGVPDRFSGSGSGTEFTLKISRVEAEDLGVYYCFQGSHVPFTFGAGTKLELKR", "values": [{"measurement": "binding", "value": "binds"}]}]}
